For three sequences, binding result and Kd results are on record in article PMC8600398.

Amino acid sequences for entries named in this document (tags omitted). A change or cut given only in a name is not applied to a line headed by its entry.
UniProt P0ACJ8: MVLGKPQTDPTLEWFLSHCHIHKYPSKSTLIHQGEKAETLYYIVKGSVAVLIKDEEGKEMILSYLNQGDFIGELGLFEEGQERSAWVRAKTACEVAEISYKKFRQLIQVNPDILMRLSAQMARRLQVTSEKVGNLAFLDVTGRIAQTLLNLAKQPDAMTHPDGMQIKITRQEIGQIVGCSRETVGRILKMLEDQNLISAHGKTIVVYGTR

For at least one entry, the source does not settle the construct or the ends of the probe. Negatives hold for the conditions tested.

The target of this data set is 6His-CRP (cAMP receptor protein) (UniProt P0ACJ8). Briefly: EMSA. As to conditions: 200 uM cAMP, 10 mM Tris-HCl pH 7.5, 50 mM NaCl, 5 mM MgSO4, 1 mM DTT, 1 mg/ml BSA, 10% glycerol, 12 ug/ml poly(dI-dC), 5 nM DNA, 37 C 15 min, recombinant protein, protein details: N-terminal 6His, label: Cy5 (5' or 3'), probe letters rebuilt from the primers and the genome.

Take “AGTACTCGCACTTTTCCCACTAACTGCGCGCTGTTCCAGGTTTTGTAGCTAAACTGATCTTTATCAAGCACCAACTCGCCCCGATCGGTAATGCCAATCGGCGGCACTCGCTGACCGGTTTCGAACTGATGTGCGGAAGCCATCATCGGCAACAGCAGGCAGGTGAGTGCCAGAATCTTGCGTAGGGTCATGGTGTTTCCTTCTTATGATATGCAGGTGATCCGACCACTTGGGTCTGAGTTTTAATCATATGTGCTATTTATCGAATTTCCCGCAAGTGTGATGCCAGTTTGCGGTCAAGCGCACAAATCATATGAAAAATGAATGCTTATACTGAAGACCGCGCTTCGGTAAAAAGATAATTCTGAATAATTGTAACCTTTAGGTAAAAAAAGTTATACGCGGGATCCGGGG (double strand) [ytfK P2 promoter region (to -132)]”: the binding result is “binds”.
Take “CATTGTTATCTCCTGCTGAGTATTACGCCTGTGCGGTGCCACAATCGGCCCAACTATTATGAGGCGCAAATTTTAATGCTTAGTGACTATAGACTATCCGGGCAATGTTTCCACCGCGTATAACTTTTTTTACCTAAAGGTTACAATTATTCAGAATTATCTTTTTACCGAAGCGCGGTCTTCAGTATAAGCATTCATTTTTCATATGATTTGTGCGCTTGACCCTTGCGGGAAATTCGATAAATAGCACATATGATTAAAACTCAGACCCAAGTGGTCGGATCACCTGCATATCATAAGAAGGAAACACCATGACCCTACGCAAGATTCTGGCACTCACCTGCCTGCTGTTGCCGATGATGGCTTCCGCACATCAGTTCGAAACCGGTCAGCGAGTGCCGCCGATTGGCATTACCGATCGGGGCGAGTTGGTGCTTGATAAAGATCAGTTTAGCTACAAAACCTGGAACAGCGCGCAGTTAGTGGGAAAAGTGCGAGTACT (double strand) [ytfK promoter region with CRP site deleted]”: the binding result is “no binding”.
By Kd is commonly meant the free concentration of one partner at which half of the binding sites on the other are occupied at equilibrium, for simple one-to-one binding. As to “AGTACTCGCACTTTTCCCACTAACTGCGCGCTGTTCCAGGTTTTGTAGCTAAACTGATCTTTATCAAGCACCAACTCGCCCCGATCGGTAATGCCAATCGGCGGCACTCGCTGACCGGTTTCGAACTGATGTGCGGAAGCCATCATCGGCAACAGCAGGCAGGTGAGTGCCAGAATCTTGCGTAGGGTCATGGTGTTTCCTTCTTATGATATGCAGGTGATCCGACCACTTGGGTCTGAGTTTTAATCATATGTGCTATTTATCGAATTTCCCGCAAGTGTGATGCCAGTTTGCGGTCAAGCGCACAAATCATATGAAAAATGAATGCTTATACTGAAGACCGCGCTTCGGTAAAAAGATAATTCTGAATAATTGTAACCTTTAGGTAAAAAAAGTTATACGCGGTGGAAACATTGCCCGGATAGTCTATAGTCACTAAGCATTAAAATTTGCGCCTCATAATAGTTGGGCCGATTGTGGCACCGCACAGGCGTAATACTCAGCAGGAGATAACAATG (double strand) [ytfK promoter region -515/+3]”, the Kd worked out at 25 nM.
